# Laboratory results reported in paper PMC12366701.
# Sequences of proteins named here, by UniProt entry; tags and fusion partners are left off. A change or cut given only in a name is not applied to a line headed by its entry.
# UniProt P68363: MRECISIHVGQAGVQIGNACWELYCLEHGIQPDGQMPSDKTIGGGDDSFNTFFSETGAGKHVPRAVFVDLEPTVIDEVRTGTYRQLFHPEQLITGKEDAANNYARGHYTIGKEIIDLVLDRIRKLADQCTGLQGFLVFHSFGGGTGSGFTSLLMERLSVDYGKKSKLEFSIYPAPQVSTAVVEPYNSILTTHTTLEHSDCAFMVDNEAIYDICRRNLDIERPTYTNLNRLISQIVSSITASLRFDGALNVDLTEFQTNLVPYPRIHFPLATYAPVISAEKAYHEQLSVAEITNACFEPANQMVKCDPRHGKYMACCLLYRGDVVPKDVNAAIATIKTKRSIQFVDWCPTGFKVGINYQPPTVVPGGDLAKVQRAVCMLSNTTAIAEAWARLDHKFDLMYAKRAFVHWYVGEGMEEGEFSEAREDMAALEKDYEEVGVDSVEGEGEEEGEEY
# UniProt P07437: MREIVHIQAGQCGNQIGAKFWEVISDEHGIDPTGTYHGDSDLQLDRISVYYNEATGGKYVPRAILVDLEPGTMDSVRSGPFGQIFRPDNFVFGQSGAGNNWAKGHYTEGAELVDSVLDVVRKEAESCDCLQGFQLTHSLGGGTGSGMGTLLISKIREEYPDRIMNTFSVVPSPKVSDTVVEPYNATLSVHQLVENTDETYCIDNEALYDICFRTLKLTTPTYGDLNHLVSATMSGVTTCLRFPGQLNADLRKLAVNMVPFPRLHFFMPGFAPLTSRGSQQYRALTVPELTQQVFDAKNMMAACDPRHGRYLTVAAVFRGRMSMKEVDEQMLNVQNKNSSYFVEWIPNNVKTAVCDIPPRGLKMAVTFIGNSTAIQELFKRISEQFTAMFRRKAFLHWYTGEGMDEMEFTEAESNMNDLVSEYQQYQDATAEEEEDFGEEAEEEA
# UniProt Q8NHH1: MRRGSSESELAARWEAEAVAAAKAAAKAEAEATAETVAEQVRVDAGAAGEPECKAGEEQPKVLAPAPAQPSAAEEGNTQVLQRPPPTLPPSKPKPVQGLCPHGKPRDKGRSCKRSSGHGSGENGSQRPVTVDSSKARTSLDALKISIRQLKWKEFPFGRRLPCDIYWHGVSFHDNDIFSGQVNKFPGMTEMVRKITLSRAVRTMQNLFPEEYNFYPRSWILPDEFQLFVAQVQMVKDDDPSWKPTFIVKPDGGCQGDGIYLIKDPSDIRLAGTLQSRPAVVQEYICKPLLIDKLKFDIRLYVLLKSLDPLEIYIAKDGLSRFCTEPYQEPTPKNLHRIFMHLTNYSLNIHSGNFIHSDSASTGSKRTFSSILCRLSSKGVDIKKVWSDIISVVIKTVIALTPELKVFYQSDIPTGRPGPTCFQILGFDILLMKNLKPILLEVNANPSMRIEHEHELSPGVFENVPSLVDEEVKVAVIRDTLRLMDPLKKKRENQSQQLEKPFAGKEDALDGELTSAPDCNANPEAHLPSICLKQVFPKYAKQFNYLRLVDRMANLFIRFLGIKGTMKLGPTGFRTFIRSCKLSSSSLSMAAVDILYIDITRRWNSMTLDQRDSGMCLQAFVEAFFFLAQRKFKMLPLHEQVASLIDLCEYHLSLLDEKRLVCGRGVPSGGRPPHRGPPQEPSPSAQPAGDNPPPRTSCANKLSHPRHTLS
# These are yes or no findings as the source states them, for the method shown. Binding calls can cover weak binding; strength is not graded here.
# Key:
# [1] = molecular target: human α-tubulin (TUBA1B) in the HEK293T microtubule lattice (human (endogenous in HEK293T)) (UniProt P68363); assay: cryo-EM structure; 10 μM TTLL11 (E441G) and 10 μM dsMTs from HEK293T tubulin in EM buffer (40 mM tris-HCl pH 7.0, 1 mM TCEP, 1 mM MgCl2, 5% glycerol); 14-protofilament MTs; both purified
# [2] = molecular target: human β-tubulin (TUBB-5) in the HEK293T microtubule lattice (human (endogenous in HEK293T)) (UniProt P07437); assay: as above
substance,measurement,setting,value
"hTTLL11 (residues 128 to 657), TTLL11 (E441G) of the cryo-EM sample (from UniProt Q8NHH1) (enzyme)",binding,[1],binds
same,binding,[2],binds
